# Test results taken from patent US8541460B2, “PDK-1/Akt signaling inhibitors” (The Ohio State University, priority 2003, dated 2013).
# How the values were obtained:
# UO-31 = assay: NCI DTP cell line screen (SRB), Renal Cancer; type: cell-based, human
# Experimental: (§1) Screening of compounds 70 and 71 against several cancer cell lines The human tumor cell lines of the cancer screening panel are grown in RPMI 1640 medium containing 5% fetal bovine serum and 2 mM L-glutamine. For a typical screening experiment, cells are inoculated into 96 well microtiter plates in 100 μL at plating densities ranging from 5,000 to 40,000 cells/well depending on the doubling time of individual cell lines. After cell inoculation, the microtiter plates are incubated at 37° C., 5% CO2, 95% air and 100% relative humidity for 24 h prior to addition of experimental drugs.
# (§2) After 24 h, two plates of each cell line are fixed in situ with TCA, to represent a measurement of the cell population for each cell line at the time of drug addition (Tz). Experimental drugs are solubilized in dimethyl sulfoxide at 400-fold the desired final maximum test concentration and stored frozen prior to use. At the time of drug addition, an aliquot of frozen concentrate is thawed and diluted to twice the desired final maximum test concentration with complete medium containing 50 μg/ml gentamicin. Additional four, 10-fold or ½ log serial dilutions are made to provide a total of five drug concentrations plus control. Aliquots of 100 μl of these different drug dilutions are added to the appropriate microtiter wells already containing 100 μl of medium, resulting in the required final drug concentrations.
# (§3) Following drug addition, the plates are incubated for an additional 48 h at 37° C., 5% CO2, 95% air, and 100% relative humidity. For adherent cells, the assay is terminated by the addition of cold TCA. Cells are fixed in situ by the gentle addition of 50 μl of cold 50% (w/v) TCA (final concentration, 10% TCA) and incubated for 60 minutes at 4° C. The supernatant is discarded, and the plates are washed five times with tap water and air dried. Sulforhodamine B (SRB) solution (100 μl) at 0.4% (w/v) in 1% acetic acid is added to each well, and plates are incubated for 10 minutes at room temperature. After staining, unbound dye is removed by washing five times with 1% acetic acid and the plates are air dried. Bound stain is subsequently solubilized with 10 mM trizma base, and the absorbance is read on an automated plate reader at a wavelength of 515 nm. For suspension cells, the methodology is the same except that the assay is terminated by fixing settled cells at the bottom of the wells by gently adding 50 μl of 80% TCA (final concentration, 16% TCA). Using the seven absorbance measurements [time zero, (Tz), control growth, (C), and test growth in the presence of drug at the five concentration levels (Ti)], the percentage growth is calculated at each of the drug concentrations levels. Percentage growth inhibition is calculated as: [(Ti−Tz)/(C−Tz)]×100 for concentrations for which Ti>/=Tz [(Ti−Tz)/Tz]×100 for concentrations for which Ti<Tz
# (§4) Three dose response parameters are calculated for each experimental agent. […] The drug concentration resulting in total growth inhibition (TGI) is calculated from Ti=Tz. […] Values are calculated for each of these three parameters if the level of activity is reached; however, if the effect is not reached or is exceeded, the value for that parameter is expressed as greater or less than the maximum or minimum concentration tested.
# (§5) The methods described were used to test compounds 70 and 71 on a panel of sixty cell lines under a screening service provided by the Developmental Therapeutics Program at the National Institutes of Health. Shown in FIG. 1C are 1, RPMI-8226 leukemia cells; 2; NCI-H322M non-small cell lung cancer cells; 3, HT29 colon cancer cells; 4, U251 CNS cancer cells; 5, SK-MEL-28 melanoma cancer cells; 6, SK-OV-3 ovarian cancer cells; 7, RXF 393 renal cancer cells; 8, PC-3 prostate cancer cells; 9, MDA-MB-231 breast cancer cells.
# ACHN = assay: NCI DTP cell line screen (SRB), Renal Cancer; type: cell-based, human
# Experimental: as §1, §2, §3, §4, §5
# OVCAR-8 = assay: NCI DTP cell line screen (SRB), Ovarian Cancer; type: cell-based
# Experimental: as §1, §2, §3, §4, §5
# IGROV1 = assay: NCI DTP cell line screen (SRB), Ovarian Cancer; type: cell-based
# Experimental: as §1, §2, §3, §4, §5
# OVCAR-4 = assay: NCI DTP cell line screen (SRB), Ovarian Cancer; type: cell-based
# Experimental: as §1, §2, §3, §4, §5
# OVCAR-5 = assay: NCI DTP cell line screen (SRB), Ovarian Cancer; type: cell-based
# Experimental: as §1, §2, §3, §4, §5
# OVCAR-3 = assay: NCI DTP cell line screen (SRB), Ovarian Cancer; type: cell-based
# Experimental: as §1, §2, §3, §4, §5
# MDA-MB-231/ATCC = assay: NCI DTP cell line screen (SRB), Breast Cancer; type: cell-based
# Experimental: as §1, §2, §3, §4, §5
# NCI/ADR-RES = assay: NCI DTP cell line screen (SRB), Breast Cancer; type: cell-based
# Experimental: as §1, §2, §3, §4, §5
# SF-295 = assay: NCI DTP cell line screen (SRB), CNS Cancer; type: cell-based
# Experimental: as §1, §2, §3, §4, §5
# SF-268 = assay: NCI DTP cell line screen (SRB), CNS Cancer; type: cell-based
# Experimental: as §1, §2, §3, §4, §5
# SW-620 = assay: NCI DTP cell line screen (SRB), Colon Cancer; type: cell-based
# Experimental: as §1, §2, §3, §4, §5
# HCT-116 = assay: NCI DTP cell line screen (SRB), Colon Cancer; type: cell-based
# Experimental: as §1, §2, §3, §4, §5
compound,measurement,setting,value
"NCC(=O)Nc1ccc(-n2nc(C(F)(F)F)cc2-c2ccc3c(ccc4ccccc43)c2)cc1 [Compound 70, 2-Amino-N-{4-[5-(2-phenanthrenyl)-3-(trifluoromethyl)-1H-pyrazol-1-yl]-phenyl}-acetamide]",Mean Optical Densities,UO-31; Log10 Concentration −4.0,0.285
same,Mean Optical Densities,UO-31; Log10 Concentration −5.0,0.161
same,Mean Optical Densities,UO-31; Log10 Concentration −6.0,1.356
same,Mean Optical Densities,UO-31; Log10 Concentration −7.0,1.563
same,Mean Optical Densities,UO-31; Log10 Concentration −8.0,1.572
same,Mean Optical Densities,ACHN; Log10 Concentration −4.0,0.313
same,Mean Optical Densities,ACHN; Log10 Concentration −5.0,0.150
same,Mean Optical Densities,ACHN; Log10 Concentration −6.0,0.829
same,Mean Optical Densities,ACHN; Log10 Concentration −7.0,1.037
same,Mean Optical Densities,ACHN; Log10 Concentration −8.0,0.985
same,Mean Optical Densities,OVCAR-8; Log10 Concentration −4.0,0.306
same,Mean Optical Densities,OVCAR-8; Log10 Concentration −5.0,0.269
same,Mean Optical Densities,OVCAR-8; Log10 Concentration −6.0,0.755
same,Mean Optical Densities,OVCAR-8; Log10 Concentration −7.0,1.114
same,Mean Optical Densities,OVCAR-8; Log10 Concentration −8.0,1.078
same,Mean Optical Densities,IGROV1; Log10 Concentration −4.0,0.302
same,Mean Optical Densities,IGROV1; Log10 Concentration −5.0,0.235
same,Mean Optical Densities,IGROV1; Log10 Concentration −6.0,0.902
same,Mean Optical Densities,IGROV1; Log10 Concentration −7.0,1.103
same,Mean Optical Densities,IGROV1; Log10 Concentration −8.0,1.044
same,Mean Optical Densities,OVCAR-4; Log10 Concentration −4.0,0.172
same,Mean Optical Densities,OVCAR-4; Log10 Concentration −5.0,0.093
same,Mean Optical Densities,OVCAR-4; Log10 Concentration −6.0,1.086
same,Mean Optical Densities,OVCAR-4; Log10 Concentration −7.0,1.073
same,Mean Optical Densities,OVCAR-4; Log10 Concentration −8.0,1.114
same,Mean Optical Densities,OVCAR-5; Log10 Concentration −4.0,0.149
same,Mean Optical Densities,OVCAR-5; Log10 Concentration −5.0,0.087
same,Mean Optical Densities,OVCAR-5; Log10 Concentration −6.0,1.412
same,Mean Optical Densities,OVCAR-5; Log10 Concentration −7.0,1.540
same,Mean Optical Densities,OVCAR-5; Log10 Concentration −8.0,1.480
same,Mean Optical Densities,OVCAR-3; Log10 Concentration −4.0,0.301
same,Mean Optical Densities,OVCAR-3; Log10 Concentration −5.0,0.140
same,Mean Optical Densities,OVCAR-3; Log10 Concentration −6.0,0.816
same,Mean Optical Densities,OVCAR-3; Log10 Concentration −7.0,0.849
same,Mean Optical Densities,OVCAR-3; Log10 Concentration −8.0,0.879
same,Mean Optical Densities,MDA-MB-231/ATCC; Log10 Concentration −4.0,0.306
same,Mean Optical Densities,MDA-MB-231/ATCC; Log10 Concentration −5.0,0.173
same,Mean Optical Densities,MDA-MB-231/ATCC; Log10 Concentration −6.0,0.843
same,Mean Optical Densities,MDA-MB-231/ATCC; Log10 Concentration −7.0,0.889
same,Mean Optical Densities,MDA-MB-231/ATCC; Log10 Concentration −8.0,0.988
same,Mean Optical Densities,NCI/ADR-RES; Log10 Concentration −4.0,0.212
same,Mean Optical Densities,NCI/ADR-RES; Log10 Concentration −5.0,0.229
same,Mean Optical Densities,NCI/ADR-RES; Log10 Concentration −6.0,1.217
same,Mean Optical Densities,NCI/ADR-RES; Log10 Concentration −7.0,1.878
same,Mean Optical Densities,NCI/ADR-RES; Log10 Concentration −8.0,1.883
same,Mean Optical Densities,SF-295; Log10 Concentration −4.0,0.287
same,Mean Optical Densities,SF-295; Log10 Concentration −5.0,0.225
same,Mean Optical Densities,SF-295; Log10 Concentration −6.0,0.915
same,Mean Optical Densities,SF-295; Log10 Concentration −7.0,1.190
same,Mean Optical Densities,SF-295; Log10 Concentration −8.0,1.173
same,Mean Optical Densities,SF-268; Log10 Concentration −4.0,0.280
same,Mean Optical Densities,SF-268; Log10 Concentration −5.0,0.252
same,Mean Optical Densities,SF-268; Log10 Concentration −6.0,0.789
same,Mean Optical Densities,SF-268; Log10 Concentration −7.0,0.930
same,Mean Optical Densities,SF-268; Log10 Concentration −8.0,1.016
same,Mean Optical Densities,SW-620; Log10 Concentration −4.0,0.136
same,Mean Optical Densities,SW-620; Log10 Concentration −5.0,0.127
same,Mean Optical Densities,SW-620; Log10 Concentration −6.0,0.736
same,Mean Optical Densities,SW-620; Log10 Concentration −7.0,1.198
same,Mean Optical Densities,SW-620; Log10 Concentration −8.0,1.197
same,Mean Optical Densities,HCT-116; Log10 Concentration −4.0,0.146
same,Mean Optical Densities,HCT-116; Log10 Concentration −5.0,0.104
same,Mean Optical Densities,HCT-116; Log10 Concentration −6.0,0.452
same,Mean Optical Densities,HCT-116; Log10 Concentration −7.0,0.665
same,Mean Optical Densities,HCT-116; Log10 Concentration −8.0,0.751
